{
  "source": "paper PMC6907089",
  "binders": {"B1": {"name": "syntaxin 5 (STX5) (protein, UniProt Q13190 1-355)", "chain": "MIPRKRYGSKNTDQGVYLGLSKTQVLSPATAGSSSSDIAPLPPPVTLVPPPPDTMSCRDRTQEFLSACKSLQTRQNGIQTNKPALRAVRQRSEFTLMAKRIGKDLSNTFAKLEKLTILAKRKSLFDDKAVEIEELTYIIKQDINSLNKQIAQLQDFVRAKGSQSGRHLQTHSNTIVVSLQSKLASMSNDFKSVLEVRTENLKQQRSRREQFSRAPVSALPLAPNHLGGGAVVLGAESHASKDVAIDMMDSRTSQQLQLIDEQDSYIQSRADTMQNIESTIVELGSIFQQLAHMVKEQEETIQRIDENVLGAQLDVEAAHSEILKYFQSVTSNRWLMVKIFLILIVFFIIFVVFLA"}, "B2": {"name": "UBIA1 (protein, UniProt Q9Y5Z9 1-338)", "chain": "MAASQVLGEKINILSGETVKAGDRDPLGNDCPEQDRLPQRSWRQKCASYVLALRPWSFSASLTPVALGSALAYRSHGVLDPRLLVGCAVAVLAVHGAGNLVNTYYDFSKGIDHKKSDDRTLVDRILEPQDVVRFGVFLYTLGCVCAACLYYLSPLKLEHLALIYFGGLSGSFLYTGGIGFKYVALGDLIILITFGPLAVMFAYAIQVGSLAIFPLVYAIPLALSTEAILHSNNTRDMESDREAGIVTLAILIGPTFSYILYNTLLFLPYLVFSILATHCTISLALPLLTIPMAFSLERQFRSQAFNKLPQRTAKLNLLLGLFYVFGIILAPAGSLPKI"}, "B3": {"name": "APMAP (adipocyte plasma membrane-associated protein) (protein, UniProt Q9HDC9 1-416)", "chain": "MSEADGLRQRRPLRPQVVTDDDGQAPEAKDGSSFSGRVFRVTFLMLAVSLTVPLLGAMMLLESPIDPQPLSFKEPPLLLGVLHPNTKLRQAERLFENQLVGPESIAHIGDVMFTGTADGRVVKLENGEIETIARFGSGPCKTRDDEPVCGRPLGIRAGPNGTLFVADAYKGLFEVNPWKREVKLLLSSETPIEGKNMSFVNDLTVTQDGRKIYFTDSSSKWQRRDYLLLVMEGTDDGRLLEYDTVTREVKVLLDQLRFPNGVQLSPAEDFVLVAETTMARIRRVYVSGLMKGGADLFVENMPGFPDNIRPSSSGGYWVGMSTIRPNPGFSMLDFLSERPWIKRMIFKLFSQETVMKFVPRYSLVLELSDSGAFRRSLHDPDGLVATYISEVHEHDGHLYLGSFRSPFLCRLSLQAV"}, "B4": {"name": "PDXD1 (pyridoxal-dependent decarboxylase domain-containing protein 1) (protein, UniProt Q6P996 1-788)", "chain": "MDASLEKIADPTLAEMGKNLKEAVKMLEDSQRRTEEENGKKLISGDIPGPLQGSGQDMVSILQLVQNLMHGDEDEEPQSPRIQNIGEQGHMALLGHSLGAYISTLDKEKLRKLTTRILSDTTLWLCRIFRYENGCAYFHEEEREGLAKICRLAIHSRYEDFVVDGFNVLYNKKPVIYLSAAARPGLGQYLCNQLGLPFPCLCRVPCNTVFGSQHQMDVAFLEKLIKDDIERGRLPLLLVANAGTAAVGHTDKIGRLKELCEQYGIWLHVEGVNLATLALGYVSSSVLAAAKCDSMTMTPGPWLGLPAVPAVTLYKHDDPALTLVAGLTSNKPTDKLRALPLWLSLQYLGLDGFVERIKHACQLSQRLQESLKKVNYIKILVEDELSSPVVVFRFFQELPGSDPVFKAVPVPNMTPSGVGRERHSCDALNRWLGEQLKQLVPASGLTVMDLEAEGTCLRFSPLMTAAVLGTRGEDVDQLVACIESKLPVLCCTLQLREEFKQEVEATAGLLYVDDPNWSGIGVVRYEHANDDKSSLKSDPEGENIHAGLLKKLNELESDLTFKIGPEYKSMKSCLYVGMASDNVDAAELVETIAATAREIEENSRLLENMTEVVRKGIQEAQVELQKASEERLLEEGVLRQIPVVGSVLNWFSPVQALQKGRTFNLTAGSLESTEPIYVYKAQGAGVTLPPTPSGSRTKQRLPGQKPFKRSLRGSDALSETSSVSHIEDLEKVERLSSGPEQITLEASSTEGHPGAPSPQHTDQTEAFQKGVPHPEDDHSQVEGPESLR"}},
  "experiment_in_all_cases": "proximity labelling; BioID: MAC-tagged STING bait in stable inducible Flp-In T-REx HEK293 cells, 1 ug/ml tetracycline and 50 uM biotin for 24 h, steady state; biotinylated proteins affinity-purified and analysed by quantitative mass spectrometry; high-confidence interactors by SAINT and CRAPome; prey abundance normalised to the bait",
  "key": {"[1]": {"biological_target": "STING R232 (human)"}, "[2]": {"biological_target": "STING G207E with H232 (H+207E) (human)"}, "[3]": {"biological_target": "STING G207E with R232 (R+207E) (human)"}},
  "note": "No constants are given. Whether binding was seen depends on the method and setting. Binding seen in cells or lysates may run through a third protein. Here binding means that the protein was enriched with, or labelled near, the bait; the list need not be complete. For some assays here: No binding means not detected with the bait.",
  "data": [
    {"binder": "B1", "values": [
      {"measurement": "binding", "setting": "[1]", "value": "binds"}
    ]},
    {"binder": "B2", "values": [
      {"measurement": "binding", "setting": "[2]", "value": "binds"}
    ]},
    {"binder": "B3", "values": [
      {"measurement": "binding", "setting": "[2]", "value": "binds"},
      {"measurement": "binding", "setting": "[3]", "value": "no binding"}
    ]},
    {"binder": "B4", "values": [
      {"measurement": "binding", "setting": "[3]", "value": "binds"}
    ]}
  ]
}
